In patent US7282348B2, “Kit for measuring cytotoxicity of a test agent” (Promega Corporation, priority 2002, dated 2007):
Some results were stated once for a whole list of compounds, not compound by compound.

Assay: Stability of LDH compared to G6PDH in culture medium after cell lysis
Conditions: 6 hours after adding the lysing agent, 37° C., released from L929 cells and Jurkat cells

Substance: lactate dehydrogenase [LDH]
- starting activity retained: over 50%
